Measured values published in paper PMC8405734.
No constants are given. Whether binding was seen depends on the method and setting. In cells and extracts the contact can be indirect. These calls come from enrichment with a bait or labelling near it, and not all partners need be listed.

Protein sequences, listed by entry. Tags and fused reporters are not part of them.
UniProt P61586: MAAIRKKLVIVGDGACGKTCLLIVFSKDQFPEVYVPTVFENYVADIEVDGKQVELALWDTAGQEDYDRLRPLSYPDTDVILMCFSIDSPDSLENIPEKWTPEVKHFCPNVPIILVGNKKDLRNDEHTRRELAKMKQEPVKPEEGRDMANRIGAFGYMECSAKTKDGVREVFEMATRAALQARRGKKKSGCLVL
UniProt O75116: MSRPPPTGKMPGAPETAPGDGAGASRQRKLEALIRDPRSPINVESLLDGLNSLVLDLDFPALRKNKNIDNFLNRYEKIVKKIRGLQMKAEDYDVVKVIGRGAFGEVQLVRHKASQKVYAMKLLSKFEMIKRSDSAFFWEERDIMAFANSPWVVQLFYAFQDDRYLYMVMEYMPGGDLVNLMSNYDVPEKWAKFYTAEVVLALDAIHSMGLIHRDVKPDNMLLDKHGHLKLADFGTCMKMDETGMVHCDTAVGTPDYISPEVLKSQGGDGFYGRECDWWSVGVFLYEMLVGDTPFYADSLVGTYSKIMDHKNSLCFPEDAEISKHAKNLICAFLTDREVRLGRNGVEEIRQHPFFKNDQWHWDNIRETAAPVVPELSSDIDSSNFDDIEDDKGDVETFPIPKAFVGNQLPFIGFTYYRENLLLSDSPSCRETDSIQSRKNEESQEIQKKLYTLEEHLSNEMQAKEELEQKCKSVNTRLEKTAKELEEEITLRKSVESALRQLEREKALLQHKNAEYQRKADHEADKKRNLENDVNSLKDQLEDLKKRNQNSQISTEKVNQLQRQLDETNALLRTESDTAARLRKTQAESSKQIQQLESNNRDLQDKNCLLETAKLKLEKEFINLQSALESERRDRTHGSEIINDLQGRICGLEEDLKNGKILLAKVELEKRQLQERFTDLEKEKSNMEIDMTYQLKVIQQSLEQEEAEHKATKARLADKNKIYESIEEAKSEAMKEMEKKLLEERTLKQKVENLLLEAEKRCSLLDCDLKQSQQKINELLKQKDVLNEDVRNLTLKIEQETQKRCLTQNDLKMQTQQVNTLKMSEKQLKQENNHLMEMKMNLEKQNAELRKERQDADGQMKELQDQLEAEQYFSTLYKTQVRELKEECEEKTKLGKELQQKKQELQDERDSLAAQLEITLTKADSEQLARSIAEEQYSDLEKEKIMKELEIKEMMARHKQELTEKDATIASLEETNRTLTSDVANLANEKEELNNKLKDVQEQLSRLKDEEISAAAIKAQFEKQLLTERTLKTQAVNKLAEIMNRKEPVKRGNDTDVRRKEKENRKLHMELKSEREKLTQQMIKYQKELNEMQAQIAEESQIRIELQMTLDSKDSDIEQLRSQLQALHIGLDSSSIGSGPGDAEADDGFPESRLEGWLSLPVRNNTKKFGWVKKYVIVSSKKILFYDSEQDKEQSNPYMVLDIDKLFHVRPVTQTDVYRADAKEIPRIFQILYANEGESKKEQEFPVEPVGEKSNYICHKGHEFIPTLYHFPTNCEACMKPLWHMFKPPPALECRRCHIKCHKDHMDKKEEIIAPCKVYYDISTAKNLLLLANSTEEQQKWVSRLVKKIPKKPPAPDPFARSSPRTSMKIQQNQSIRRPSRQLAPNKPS
UniProt Q16513: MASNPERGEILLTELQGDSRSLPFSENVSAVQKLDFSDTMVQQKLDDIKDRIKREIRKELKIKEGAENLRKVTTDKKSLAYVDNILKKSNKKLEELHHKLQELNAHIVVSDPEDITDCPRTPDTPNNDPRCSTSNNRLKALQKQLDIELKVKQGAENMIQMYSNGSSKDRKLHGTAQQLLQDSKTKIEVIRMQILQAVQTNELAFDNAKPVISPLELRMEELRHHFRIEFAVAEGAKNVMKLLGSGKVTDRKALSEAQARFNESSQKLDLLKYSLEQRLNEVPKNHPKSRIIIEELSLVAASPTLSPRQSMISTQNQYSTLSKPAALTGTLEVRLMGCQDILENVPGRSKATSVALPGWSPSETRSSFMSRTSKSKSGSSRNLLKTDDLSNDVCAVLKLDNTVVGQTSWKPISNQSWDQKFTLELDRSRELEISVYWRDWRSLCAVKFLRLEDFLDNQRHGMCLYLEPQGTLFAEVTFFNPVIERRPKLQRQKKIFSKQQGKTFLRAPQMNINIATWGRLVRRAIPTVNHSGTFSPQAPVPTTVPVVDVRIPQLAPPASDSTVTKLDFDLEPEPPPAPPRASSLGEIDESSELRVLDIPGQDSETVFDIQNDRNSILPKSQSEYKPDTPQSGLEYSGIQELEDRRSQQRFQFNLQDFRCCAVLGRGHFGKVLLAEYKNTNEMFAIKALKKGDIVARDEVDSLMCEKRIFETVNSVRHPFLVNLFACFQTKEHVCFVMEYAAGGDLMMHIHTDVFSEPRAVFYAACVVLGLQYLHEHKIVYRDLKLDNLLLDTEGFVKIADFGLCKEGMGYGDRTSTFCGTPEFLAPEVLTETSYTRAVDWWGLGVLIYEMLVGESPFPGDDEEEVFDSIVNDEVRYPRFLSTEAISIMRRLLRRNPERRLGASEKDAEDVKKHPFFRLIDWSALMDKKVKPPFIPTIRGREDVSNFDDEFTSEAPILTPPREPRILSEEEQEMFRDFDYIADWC

Biological target: GST-RhoA (UniProt P61586)
Assay: affinity purification with mass spectrometry; GST (light) or GST-RhoA (heavy) on glutathione-sepharose beads, ~2 mg SILAC-labelled A375M2 lysate for 1 h; 50 mM Tris-HCl pH 7.5, 150 mM NaCl, 1% NP-40, 10 mM EDTA; LC-MS/MS; hits at 4-fold or more enrichment over GST; only the target purified

binding	Substance
binds	ROCK2 (from UniProt O75116 1-1388)
binds	serine/threonine-protein kinase N2 (PKN2) (from UniProt Q16513 1-984)
